The supplement of paper PMC10849652
The list shows a part of the results.

Sequences of proteins named here, by UniProt entry; tags and fusion partners are left off. A change or cut given only in a name is not applied to a line headed by its entry.
UniProt O75052: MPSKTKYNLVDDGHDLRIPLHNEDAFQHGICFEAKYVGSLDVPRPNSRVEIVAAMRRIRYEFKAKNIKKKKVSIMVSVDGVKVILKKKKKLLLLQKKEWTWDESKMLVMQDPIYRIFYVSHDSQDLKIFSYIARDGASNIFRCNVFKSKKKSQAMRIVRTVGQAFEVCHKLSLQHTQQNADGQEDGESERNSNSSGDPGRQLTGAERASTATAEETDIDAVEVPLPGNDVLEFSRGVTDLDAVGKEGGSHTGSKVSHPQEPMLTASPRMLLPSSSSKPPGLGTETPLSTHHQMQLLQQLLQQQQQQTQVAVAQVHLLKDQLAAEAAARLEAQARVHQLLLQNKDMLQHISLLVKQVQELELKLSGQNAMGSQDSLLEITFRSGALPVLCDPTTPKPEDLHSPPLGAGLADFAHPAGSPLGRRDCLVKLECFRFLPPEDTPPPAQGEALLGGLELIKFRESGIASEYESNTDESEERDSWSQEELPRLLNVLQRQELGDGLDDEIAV
UniProt Q8NEJ9: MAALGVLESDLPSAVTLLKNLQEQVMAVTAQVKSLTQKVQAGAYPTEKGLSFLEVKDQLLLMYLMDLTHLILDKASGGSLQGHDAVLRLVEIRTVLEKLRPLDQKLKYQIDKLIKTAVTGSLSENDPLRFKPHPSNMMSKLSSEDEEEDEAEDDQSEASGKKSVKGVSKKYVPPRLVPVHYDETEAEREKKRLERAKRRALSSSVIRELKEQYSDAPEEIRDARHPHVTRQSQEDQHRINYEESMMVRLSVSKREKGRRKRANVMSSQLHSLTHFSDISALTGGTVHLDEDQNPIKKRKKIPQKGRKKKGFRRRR
UniProt P25963: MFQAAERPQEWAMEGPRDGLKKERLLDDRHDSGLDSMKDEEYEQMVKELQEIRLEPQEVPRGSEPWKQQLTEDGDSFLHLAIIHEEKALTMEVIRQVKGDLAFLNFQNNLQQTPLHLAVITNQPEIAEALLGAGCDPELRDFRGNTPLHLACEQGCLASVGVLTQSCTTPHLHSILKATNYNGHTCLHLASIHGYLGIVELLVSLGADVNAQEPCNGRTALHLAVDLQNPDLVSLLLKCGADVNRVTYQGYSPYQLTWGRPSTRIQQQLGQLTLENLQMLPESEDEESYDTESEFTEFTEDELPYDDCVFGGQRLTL
UniProt Q96T66: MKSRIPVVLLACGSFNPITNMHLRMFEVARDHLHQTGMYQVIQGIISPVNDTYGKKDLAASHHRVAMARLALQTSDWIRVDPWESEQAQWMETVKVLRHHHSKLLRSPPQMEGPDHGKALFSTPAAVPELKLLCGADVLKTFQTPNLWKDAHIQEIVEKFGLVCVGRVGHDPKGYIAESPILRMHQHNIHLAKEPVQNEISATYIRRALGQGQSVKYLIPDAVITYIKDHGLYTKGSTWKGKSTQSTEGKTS
UniProt Q9NPE3: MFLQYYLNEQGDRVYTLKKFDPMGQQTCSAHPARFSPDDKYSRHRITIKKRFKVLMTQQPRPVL
UniProt Q9NPE2: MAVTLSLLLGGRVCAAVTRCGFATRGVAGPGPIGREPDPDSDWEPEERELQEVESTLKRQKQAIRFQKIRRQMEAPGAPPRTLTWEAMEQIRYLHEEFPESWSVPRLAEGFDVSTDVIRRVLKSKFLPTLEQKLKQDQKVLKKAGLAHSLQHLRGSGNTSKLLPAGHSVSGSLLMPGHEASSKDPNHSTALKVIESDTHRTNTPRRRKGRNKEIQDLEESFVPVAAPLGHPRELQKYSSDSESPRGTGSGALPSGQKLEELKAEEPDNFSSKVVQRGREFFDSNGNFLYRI
UniProt Q9NSY0: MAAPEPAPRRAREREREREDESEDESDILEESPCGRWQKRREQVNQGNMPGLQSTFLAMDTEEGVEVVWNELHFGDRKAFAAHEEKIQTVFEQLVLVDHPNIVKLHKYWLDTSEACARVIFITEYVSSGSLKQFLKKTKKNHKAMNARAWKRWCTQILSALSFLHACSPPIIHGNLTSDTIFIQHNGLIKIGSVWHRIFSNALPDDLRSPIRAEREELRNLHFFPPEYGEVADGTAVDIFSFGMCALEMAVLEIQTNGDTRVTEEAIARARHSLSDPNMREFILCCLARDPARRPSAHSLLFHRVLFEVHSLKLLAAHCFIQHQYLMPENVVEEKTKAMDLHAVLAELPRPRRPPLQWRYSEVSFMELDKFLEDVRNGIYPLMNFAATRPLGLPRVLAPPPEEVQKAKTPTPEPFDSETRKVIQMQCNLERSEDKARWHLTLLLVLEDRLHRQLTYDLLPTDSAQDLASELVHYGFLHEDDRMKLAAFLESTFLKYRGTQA
UniProt Q9BS92: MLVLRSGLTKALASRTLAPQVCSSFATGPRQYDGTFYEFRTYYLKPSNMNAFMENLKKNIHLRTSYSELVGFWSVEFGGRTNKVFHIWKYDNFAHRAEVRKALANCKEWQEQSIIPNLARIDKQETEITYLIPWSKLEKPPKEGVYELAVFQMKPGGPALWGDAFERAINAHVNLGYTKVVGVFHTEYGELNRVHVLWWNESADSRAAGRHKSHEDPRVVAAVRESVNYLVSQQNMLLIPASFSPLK
UniProt Q00653: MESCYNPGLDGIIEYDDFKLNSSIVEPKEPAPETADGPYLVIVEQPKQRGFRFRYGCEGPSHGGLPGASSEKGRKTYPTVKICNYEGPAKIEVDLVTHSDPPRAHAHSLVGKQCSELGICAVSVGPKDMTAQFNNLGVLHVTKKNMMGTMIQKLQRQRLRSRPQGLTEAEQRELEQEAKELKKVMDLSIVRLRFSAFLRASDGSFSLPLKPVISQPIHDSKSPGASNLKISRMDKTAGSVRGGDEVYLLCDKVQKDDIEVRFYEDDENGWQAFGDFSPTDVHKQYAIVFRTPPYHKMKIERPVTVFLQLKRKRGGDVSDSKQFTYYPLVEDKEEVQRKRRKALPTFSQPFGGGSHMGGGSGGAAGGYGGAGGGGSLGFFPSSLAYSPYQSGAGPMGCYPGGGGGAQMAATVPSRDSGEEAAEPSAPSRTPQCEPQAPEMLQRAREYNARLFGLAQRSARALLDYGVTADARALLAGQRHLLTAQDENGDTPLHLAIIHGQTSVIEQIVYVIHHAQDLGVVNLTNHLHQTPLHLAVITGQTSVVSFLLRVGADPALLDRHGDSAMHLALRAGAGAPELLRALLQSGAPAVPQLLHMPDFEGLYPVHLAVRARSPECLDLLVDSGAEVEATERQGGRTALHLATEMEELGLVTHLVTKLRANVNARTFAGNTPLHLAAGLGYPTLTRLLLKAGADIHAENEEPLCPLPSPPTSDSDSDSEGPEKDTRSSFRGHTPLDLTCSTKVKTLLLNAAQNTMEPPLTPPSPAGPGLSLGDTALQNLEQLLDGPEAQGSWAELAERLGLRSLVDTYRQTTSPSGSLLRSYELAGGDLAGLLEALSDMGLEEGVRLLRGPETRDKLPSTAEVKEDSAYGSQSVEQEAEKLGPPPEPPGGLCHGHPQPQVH
UniProt Q86YC3: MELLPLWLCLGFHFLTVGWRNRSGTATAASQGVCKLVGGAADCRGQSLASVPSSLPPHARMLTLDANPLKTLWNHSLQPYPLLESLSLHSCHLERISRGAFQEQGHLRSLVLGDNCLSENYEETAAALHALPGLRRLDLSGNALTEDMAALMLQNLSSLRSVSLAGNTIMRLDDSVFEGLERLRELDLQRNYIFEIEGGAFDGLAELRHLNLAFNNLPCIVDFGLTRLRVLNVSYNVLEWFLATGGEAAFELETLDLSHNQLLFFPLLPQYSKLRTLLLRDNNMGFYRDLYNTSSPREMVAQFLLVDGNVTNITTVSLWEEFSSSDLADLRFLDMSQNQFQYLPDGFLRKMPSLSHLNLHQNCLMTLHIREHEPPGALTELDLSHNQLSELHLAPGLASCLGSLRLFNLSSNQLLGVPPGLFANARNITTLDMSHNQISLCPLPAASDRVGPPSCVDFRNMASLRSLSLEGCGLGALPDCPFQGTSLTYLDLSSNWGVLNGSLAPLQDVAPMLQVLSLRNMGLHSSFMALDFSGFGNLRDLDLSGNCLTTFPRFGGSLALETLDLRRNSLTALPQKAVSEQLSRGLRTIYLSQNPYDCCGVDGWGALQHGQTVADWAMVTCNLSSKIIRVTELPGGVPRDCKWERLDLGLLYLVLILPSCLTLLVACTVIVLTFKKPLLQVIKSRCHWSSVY
UniProt Q92686, whole entry, looked up: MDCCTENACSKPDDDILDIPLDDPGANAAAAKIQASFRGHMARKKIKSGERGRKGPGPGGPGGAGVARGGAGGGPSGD
UniProt Q9UHC9: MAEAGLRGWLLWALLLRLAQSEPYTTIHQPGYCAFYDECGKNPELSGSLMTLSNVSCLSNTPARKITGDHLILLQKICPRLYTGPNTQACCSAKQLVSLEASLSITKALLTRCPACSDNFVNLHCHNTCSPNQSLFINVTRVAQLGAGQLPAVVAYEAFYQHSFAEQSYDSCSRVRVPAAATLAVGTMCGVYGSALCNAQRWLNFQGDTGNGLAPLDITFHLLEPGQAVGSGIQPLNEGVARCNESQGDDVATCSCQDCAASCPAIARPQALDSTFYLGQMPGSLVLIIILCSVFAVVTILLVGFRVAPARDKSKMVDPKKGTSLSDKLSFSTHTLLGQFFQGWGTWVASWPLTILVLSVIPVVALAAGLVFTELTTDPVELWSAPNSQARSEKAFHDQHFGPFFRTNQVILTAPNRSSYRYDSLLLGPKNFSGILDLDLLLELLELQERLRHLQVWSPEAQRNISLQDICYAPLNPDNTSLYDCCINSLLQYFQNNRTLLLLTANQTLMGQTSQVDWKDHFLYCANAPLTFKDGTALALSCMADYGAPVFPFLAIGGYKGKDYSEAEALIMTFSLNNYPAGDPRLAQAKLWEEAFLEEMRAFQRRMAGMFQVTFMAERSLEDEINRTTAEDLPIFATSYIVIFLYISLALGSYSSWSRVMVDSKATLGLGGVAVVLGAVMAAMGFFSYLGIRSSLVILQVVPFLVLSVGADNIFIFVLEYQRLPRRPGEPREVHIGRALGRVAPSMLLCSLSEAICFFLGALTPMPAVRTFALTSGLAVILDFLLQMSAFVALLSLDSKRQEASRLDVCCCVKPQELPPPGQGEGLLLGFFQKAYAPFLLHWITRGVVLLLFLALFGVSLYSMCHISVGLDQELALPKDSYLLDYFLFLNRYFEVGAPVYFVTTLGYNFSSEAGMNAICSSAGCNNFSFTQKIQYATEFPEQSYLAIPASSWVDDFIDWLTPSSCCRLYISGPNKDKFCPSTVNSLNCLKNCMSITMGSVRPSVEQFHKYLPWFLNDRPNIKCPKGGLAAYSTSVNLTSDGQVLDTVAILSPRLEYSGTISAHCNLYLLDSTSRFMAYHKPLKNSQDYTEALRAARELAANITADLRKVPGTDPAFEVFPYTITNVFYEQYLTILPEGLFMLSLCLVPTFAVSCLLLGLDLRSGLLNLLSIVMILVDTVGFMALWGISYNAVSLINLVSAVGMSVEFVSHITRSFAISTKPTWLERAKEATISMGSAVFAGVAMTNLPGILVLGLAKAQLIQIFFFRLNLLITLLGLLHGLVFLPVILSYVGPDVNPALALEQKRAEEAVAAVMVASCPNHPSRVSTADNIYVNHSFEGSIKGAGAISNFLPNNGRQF
UniProt Q8IXM6: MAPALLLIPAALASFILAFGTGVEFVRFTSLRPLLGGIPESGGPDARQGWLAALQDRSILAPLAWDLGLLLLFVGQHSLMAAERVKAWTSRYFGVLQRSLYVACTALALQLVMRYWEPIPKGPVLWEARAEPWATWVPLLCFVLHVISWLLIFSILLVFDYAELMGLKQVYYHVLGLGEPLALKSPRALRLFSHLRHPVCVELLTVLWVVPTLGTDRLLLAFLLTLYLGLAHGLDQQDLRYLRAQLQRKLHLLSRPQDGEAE

Columns and labels:
Assay in all cases: log2 fold change, soluble protein after heating vs DMSO (PISA); higher = thermal stabilisation; K562 cells, 10 uM, 30 min; active = over 0.2 and 3.5 SD of the protein, either way, in both replicates (recomputed)
[1] = compound: C[C@@H]1COCCN1C2=NC(=NC(=C2)C3(CC3)S(=O)(=O)C)C4=C5C=CNC5=CC=C4
Method in brief: (§1)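 Soluble protein was defined as the supernatant after 21,000xg for 90 min. It came from K562 cells at 2×10^6 cells/mL given 10 μM compound for 30 min, heated in aliquots for 3 min across 48°C-58°C, pooled, and extracted in PBS with 0.5% NP-40 at 4°C, and was quantified by TMTpro 16plex LC-MS/MS with equalised channel sums. Thermal stability against control samples, from duplicates, is reported as log2 fold change.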

[2] = compound: C[C@H](C1=CC=C(C=C1)C(=O)NC2=C3C=CNC3=NC=C2)N
Method in brief: as §1

ispinesib = compound: Cc1ccc(C(=O)N(CCCN)[C@@H](c2nc3cc(Cl)ccc3c(=O)n2Cc2ccccc2)C(C)C)cc1 [ispinesib]
Method in brief: as §1

bafetinib = compound: Cc1ccc(NC(=O)c2ccc(CN3CC[C@H](N(C)C)C3)c(C(F)(F)F)c2)cc1Nc1nccc(-c2cncnc2)n1 [bafetinib]
Method in brief: as §1

[3] = compound: Cn1cc(-c2ccc3c(c2)CCN3C(=O)Cc2cccc(C(F)(F)F)c2)c2c(N)ncnc21
Method in brief: as §1

[4] = compound: Cn1cc(-c2ccc3nnc(C(F)(F)c4ccc5ncccc5c4)n3n2)cn1
Method in brief: as §1

tipifarnib = compound: Cn1cncc1[C@@](N)(c1ccc(Cl)cc1)c1ccc2c(c1)c(-c1cccc(Cl)c1)cc(=O)n2C [tipifarnib]
Method in brief: as §1

mubritinib = compound: FC(F)(F)c1ccc(/C=C/c2nc(COc3ccc(CCCCn4ccnn4)cc3)co2)cc1 [mubritinib]
Method in brief: as §1

[5] = compound: CS(=O)(=O)c1ccc(-c2cnc(N)c(C(=O)Nc3ccccc3)n2)cc1
Method in brief: as §1

tozasertib = compound: Cc1cc(Nc2cc(N3CCN(C)CC3)nc(Sc3ccc(NC(=O)C4CC4)cc3)n2)n[nH]1 [tozasertib]
Method in brief: as §1

duvelisib = compound: C[C@H](Nc1ncnc2nc[nH]c12)c1cc2cccc(Cl)c2c(=O)n1-c1ccccc1 [duvelisib]
Method in brief: as §1

gandotinib = compound: Cc1cc(Nc2cc(CN3CCOCC3)c3nc(C)c(Cc4ccc(Cl)cc4F)n3n2)n[nH]1 [gandotinib]
Method in brief: as §1

[6] = compound: Cc1cc(SCc2sc(-c3ccc(C(F)(F)F)cc3)nc2C)ccc1OCC(=O)O
Method in brief: as §1

[7] = compound: Cc1cccc(CC(=O)N2CCc3c2ccc(-c2cn(C)c4ncnc(N)c24)c3F)n1
Method in brief: as §1

dasatinib = compound: Cc1nc(Nc2ncc(C(=O)Nc3c(C)cccc3Cl)s2)cc(N2CCN(CCO)CC2)n1 [dasatinib]
Method in brief: as §1

crizotinib = compound: C[C@@H](Oc1cc(-c2cnn(C3CCNCC3)c2)cnc1N)c1c(Cl)ccc(F)c1Cl [crizotinib]
Method in brief: as §1

doramapimod = compound: Cc1ccc(-n2nc(C(C)(C)C)cc2NC(=O)Nc2ccc(OCCN3CCOCC3)c3ccccc23)cc1 [doramapimod]
Method in brief: as §1

nilotinib = compound: Cc1cn(-c2cc(NC(=O)c3ccc(C)c(Nc4nccc(-c5cccnc5)n4)c3)cc(C(F)(F)F)c2)cn1 [nilotinib]
Method in brief: as §1

[8] = compound: Cc1nc(Nc2n[nH]c3c2CN(C(=O)N[C@H](CN(C)C)c2ccccc2)C3(C)C)c2sccc2n1
Method in brief: as §1

[9] = compound: Cc1ncc(-c2ccnc(Nc3ccc(S(C)(=O)=O)cc3)n2)n1C(C)C
Method in brief: as §1

Measured: log2 fold change

NOS1AP (UniProt O75052)
inactive: [1] 0.101 | [2] 0.237 | ispinesib -0.279 | bafetinib -0.052 | [3] 0.067 | [4] -0.179 | tipifarnib -0.037 | mubritinib 0.165

NGDN (UniProt Q8NEJ9)
inactive: [5] -0.314 | [2] 0.204 | tozasertib -0.078 | ispinesib -0.361 | [3] -0.074 | [4] -0.011

NFKBIA (UniProt P25963)
inactive: [5] 0.076 | duvelisib 0 | gandotinib -0.218 | [6] 0.11 | [7] 0.061 | dasatinib 0.228

NSA2 (UniProt O95478)
inactive: [1] -0.234 | gandotinib -0.032 | bafetinib 0.209 | [7] 0

NMNAT3 (UniProt Q96T66)
inactive: [5] 0.107 | [1] 0.145 | duvelisib 0.241 | [6] -0.086 | bafetinib 0.021 | dasatinib 0.057 | tipifarnib 0.085 | mubritinib -0.101

NOP10 (UniProt Q9NPE3)
inactive: crizotinib -0.144 | [2] 0.061 | duvelisib 0 | [6] -0.111 | doramapimod 0.009 | ispinesib -0.016 | bafetinib 0.079 | nilotinib 0.028 | [8] 0.02 | dasatinib 0.084 | [9] -0.006 | [3] -0.192 | [4] 0.001 | tipifarnib 0.02 | mubritinib -0.162

NGRN (UniProt Q9NPE2)
inactive: [5] -0.023 | [1] -0.01 | [2] 0.036 | duvelisib -0.046 | gandotinib 0.022 | tozasertib -0.095 | [6] -0.04 | bafetinib 0.063 | [7] 0.042 | nilotinib -0.044 | [8] -0.024 | dasatinib -0.15 | [9] 0.016 | [3] 0.056 | tipifarnib 0.013 | mubritinib -0.046

NOL8 (UniProt Q76FK4)
inactive: duvelisib -0.098 | gandotinib 0.029 | [6] -0.121 | [7] -0.381 | dasatinib 0.07 | tipifarnib 0.165

NRBP2 (UniProt Q9NSY0)
inactive: crizotinib -0.015 | doramapimod -0.068 | ispinesib -0.008 | [4] -0.12

Reprinted from the listing (4 entries):
NOP10 (UniProt Q9NPE3)
inactive: crizotinib -0.144 | [2] 0.061 | duvelisib 0 | [6] -0.111 | doramapimod 0.009 | ispinesib -0.016 | bafetinib 0.079 | nilotinib 0.028 | [8] 0.02 | dasatinib 0.084 | [9] -0.006 | [3] -0.192 | [4] 0.001 | tipifarnib 0.02 | mubritinib -0.162

NGRN (UniProt Q9NPE2)
inactive: [5] -0.023 | [1] -0.01 | [2] 0.036 | duvelisib -0.046 | gandotinib 0.022 | tozasertib -0.095 | [6] -0.04 | bafetinib 0.063 | [7] 0.042 | nilotinib -0.044 | [8] -0.024 | dasatinib -0.15 | [9] 0.016 | [3] 0.056 | tipifarnib 0.013 | mubritinib -0.046

NOL8 (UniProt Q76FK4)
inactive: duvelisib -0.098 | gandotinib 0.029 | [6] -0.121 | [7] -0.381 | dasatinib 0.07 | tipifarnib 0.165

NRBP2 (UniProt Q9NSY0)
inactive: crizotinib -0.015 | doramapimod -0.068 | ispinesib -0.008 | [4] -0.12

Remaining list, next part:

NIPSNAP2 (UniProt C9J7B1)
inactive: [5] 0 | bafetinib -0.045 | mubritinib 0.173

NIPSNAP3B (UniProt Q9BS92)
inactive: [5] 0.03 | crizotinib 0.053 | [2] 0.015 | gandotinib 0.082 | [6] 0.039 | doramapimod -0.102 | bafetinib -0.085 | [7] -0.054 | nilotinib -0.029 | [8] 0.01 | dasatinib -0.044 | [9] 0.013 | [3] 0.109 | tipifarnib -0.018 | mubritinib 0.083

NFKB2 (UniProt Q00653)
inactive: crizotinib -0.042 | [1] -0.047 | [2] 0.218 | tozasertib 0.185 | doramapimod 0.037 | ispinesib -0.249 | bafetinib -0.139 | nilotinib 0.063 | [8] -0.232 | [9] -0.124 | [3] -0.024 | [4] -0.037 | tipifarnib 0.039 | mubritinib 0.015

NRROS (UniProt Q86YC3)
inactive: gandotinib 0.01 | [7] -0.121 | nilotinib -0.301 | [8] 0.02 | [9] 0.056 | tipifarnib 0.073

NRGN (UniProt Q92686)
active: gandotinib 0.891
inactive: crizotinib 0.241 | [1] 0.043 | doramapimod -0.282 | ispinesib 0 | bafetinib -0.199 | [7] -0.581 | nilotinib 0.004 | [8] -0.199 | [9] -0.088 | [4] 0.074 | tipifarnib -0.055

NPC1L1 (UniProt Q9UHC9)
inactive: [5] 0.002 | crizotinib -0.07 | [2] -0.044 | [6] -0.159 | doramapimod 0.033 | bafetinib -0.05 | nilotinib 0.659 | [8] 0.52 | dasatinib -0.117 | [3] 0.012 | tipifarnib 0.094 | mubritinib 0.008
active: [9] -0.384

NRM (UniProt Q8IXM6)
inactive: [5] -0.064 | [1] 0.234 | [2] -0.174 | gandotinib -0.232 | tozasertib 0.017 | bafetinib -0.016 | [7] -0.062 | nilotinib 0.013 | [8] -0.043 | [9] 0.043 | [3] 0.101 | tipifarnib 0 | mubritinib -0.02
